# Results from the supplement of paper PMC6411743.
# ± gives the standard deviation of the averaged measurements. Only a part is listed here, and it is no random draw.
# Experiments:
# Assay in all cases: NP40-soluble protein abundance relative to vehicle (solubility fold change) (ratio); higher = more soluble protein in presence of AMP-PNP
# [1] = molecular target: T1, GGT7 (UniProt Q9UJ14)
# T1 sequence (whole entry): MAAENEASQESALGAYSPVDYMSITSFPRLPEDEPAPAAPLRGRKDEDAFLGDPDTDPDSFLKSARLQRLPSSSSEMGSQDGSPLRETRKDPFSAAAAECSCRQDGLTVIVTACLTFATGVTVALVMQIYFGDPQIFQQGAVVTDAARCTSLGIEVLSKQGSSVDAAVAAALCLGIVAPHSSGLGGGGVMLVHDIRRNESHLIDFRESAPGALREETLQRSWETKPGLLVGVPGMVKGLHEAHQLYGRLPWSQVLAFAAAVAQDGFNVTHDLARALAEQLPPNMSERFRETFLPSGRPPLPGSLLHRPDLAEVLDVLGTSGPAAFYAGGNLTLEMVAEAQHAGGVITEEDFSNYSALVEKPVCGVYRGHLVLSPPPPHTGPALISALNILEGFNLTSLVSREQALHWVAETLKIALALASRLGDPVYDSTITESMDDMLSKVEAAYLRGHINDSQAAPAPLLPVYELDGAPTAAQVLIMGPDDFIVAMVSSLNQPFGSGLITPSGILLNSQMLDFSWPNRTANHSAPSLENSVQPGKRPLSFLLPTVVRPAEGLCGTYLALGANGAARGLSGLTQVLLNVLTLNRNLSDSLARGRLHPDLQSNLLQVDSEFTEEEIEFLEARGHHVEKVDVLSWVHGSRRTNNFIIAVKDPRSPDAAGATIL
# How it was run: (§1)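 Across three independent experiments, values are fold changes against the detergent-processed vehicle for each replicate, based on vsn-normalised intensities. The samples were Jurkat crude lysate treated with eight concentrations (0.1 to 10 mM) for 10 min at room temperature and then 3 min at 37 °C. Lysate was solubilised with 0.8% NP40 and benzonase, ultracentrifuged, and the supernatant analysed by TMT-labelled LC-MS/MS.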
# [2] = molecular target: T2, PCYOX1 (UniProt Q9UHG3)
# T2 sequence (whole entry): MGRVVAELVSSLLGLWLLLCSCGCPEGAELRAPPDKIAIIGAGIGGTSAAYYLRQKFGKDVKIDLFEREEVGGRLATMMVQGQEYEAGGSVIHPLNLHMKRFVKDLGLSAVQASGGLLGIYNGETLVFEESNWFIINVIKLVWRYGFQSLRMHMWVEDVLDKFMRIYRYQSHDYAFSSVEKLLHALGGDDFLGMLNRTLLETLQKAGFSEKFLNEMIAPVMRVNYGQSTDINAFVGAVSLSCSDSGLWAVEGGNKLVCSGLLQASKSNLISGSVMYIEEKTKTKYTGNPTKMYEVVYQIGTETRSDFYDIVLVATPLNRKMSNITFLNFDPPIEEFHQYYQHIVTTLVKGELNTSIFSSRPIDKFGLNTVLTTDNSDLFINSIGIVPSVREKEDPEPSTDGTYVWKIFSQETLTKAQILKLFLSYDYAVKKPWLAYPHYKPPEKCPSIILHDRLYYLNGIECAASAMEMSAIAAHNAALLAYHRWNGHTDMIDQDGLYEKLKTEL
# How it was run: as §1
# [3] = molecular target: T3, PLCL2 (UniProt Q9UPR0)
# T3 sequence (whole entry): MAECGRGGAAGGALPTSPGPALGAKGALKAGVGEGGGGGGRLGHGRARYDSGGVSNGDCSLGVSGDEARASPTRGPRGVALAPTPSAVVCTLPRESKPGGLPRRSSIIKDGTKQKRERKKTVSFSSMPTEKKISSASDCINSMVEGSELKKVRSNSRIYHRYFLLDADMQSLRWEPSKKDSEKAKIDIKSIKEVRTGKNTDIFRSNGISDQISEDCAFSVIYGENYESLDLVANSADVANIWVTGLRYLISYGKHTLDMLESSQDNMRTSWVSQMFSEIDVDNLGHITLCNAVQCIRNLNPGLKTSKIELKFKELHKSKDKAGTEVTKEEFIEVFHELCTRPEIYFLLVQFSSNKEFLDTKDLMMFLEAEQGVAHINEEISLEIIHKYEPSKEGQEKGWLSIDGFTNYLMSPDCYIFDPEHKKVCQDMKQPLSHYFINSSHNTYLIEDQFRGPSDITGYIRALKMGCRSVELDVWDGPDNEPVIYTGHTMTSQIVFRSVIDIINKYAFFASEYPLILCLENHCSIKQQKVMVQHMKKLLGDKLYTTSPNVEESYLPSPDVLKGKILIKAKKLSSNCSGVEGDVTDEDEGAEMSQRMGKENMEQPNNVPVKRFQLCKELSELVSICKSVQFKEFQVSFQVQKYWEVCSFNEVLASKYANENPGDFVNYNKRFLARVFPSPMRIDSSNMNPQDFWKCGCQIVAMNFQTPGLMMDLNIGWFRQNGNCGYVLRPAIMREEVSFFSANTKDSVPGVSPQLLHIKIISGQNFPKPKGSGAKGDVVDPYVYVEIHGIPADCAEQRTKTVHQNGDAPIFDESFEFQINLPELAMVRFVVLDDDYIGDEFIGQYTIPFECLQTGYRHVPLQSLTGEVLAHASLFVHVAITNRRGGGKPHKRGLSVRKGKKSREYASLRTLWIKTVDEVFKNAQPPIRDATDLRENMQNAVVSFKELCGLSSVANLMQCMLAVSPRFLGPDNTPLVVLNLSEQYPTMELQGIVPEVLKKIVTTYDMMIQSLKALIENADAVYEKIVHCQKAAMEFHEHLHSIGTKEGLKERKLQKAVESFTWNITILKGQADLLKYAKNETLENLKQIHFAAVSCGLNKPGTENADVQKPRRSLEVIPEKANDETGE
# How it was run: as §1
# [4] = molecular target: T4, POLG2 (UniProt Q9UHN1)
# T4 sequence (whole entry): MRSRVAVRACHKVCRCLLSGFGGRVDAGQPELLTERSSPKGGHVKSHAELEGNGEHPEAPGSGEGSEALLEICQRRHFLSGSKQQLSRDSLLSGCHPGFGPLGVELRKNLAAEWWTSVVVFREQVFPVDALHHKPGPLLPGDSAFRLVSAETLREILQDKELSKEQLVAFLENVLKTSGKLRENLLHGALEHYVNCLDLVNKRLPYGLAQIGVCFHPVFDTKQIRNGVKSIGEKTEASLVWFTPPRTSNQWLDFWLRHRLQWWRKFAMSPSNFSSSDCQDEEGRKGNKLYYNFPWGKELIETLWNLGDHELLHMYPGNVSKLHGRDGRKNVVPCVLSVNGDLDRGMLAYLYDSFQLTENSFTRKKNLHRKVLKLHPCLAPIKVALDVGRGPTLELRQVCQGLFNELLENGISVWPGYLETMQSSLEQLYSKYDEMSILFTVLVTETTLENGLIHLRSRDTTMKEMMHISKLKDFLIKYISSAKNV
# How it was run: as §1
# [5] = molecular target: T5, RRP15 (UniProt Q9Y3B9)
# T5 sequence (whole entry): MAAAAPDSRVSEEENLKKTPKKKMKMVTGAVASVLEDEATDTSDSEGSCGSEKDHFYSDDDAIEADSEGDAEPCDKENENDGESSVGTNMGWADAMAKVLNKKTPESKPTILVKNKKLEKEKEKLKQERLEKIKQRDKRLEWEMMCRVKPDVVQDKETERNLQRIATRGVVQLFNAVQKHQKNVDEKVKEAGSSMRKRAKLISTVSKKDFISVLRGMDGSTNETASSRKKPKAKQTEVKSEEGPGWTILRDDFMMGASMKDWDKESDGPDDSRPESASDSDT
# How it was run: as §1
# [6] = molecular target: T6, SERGEF (UniProt Q9UGK8)
# T6 sequence (whole entry): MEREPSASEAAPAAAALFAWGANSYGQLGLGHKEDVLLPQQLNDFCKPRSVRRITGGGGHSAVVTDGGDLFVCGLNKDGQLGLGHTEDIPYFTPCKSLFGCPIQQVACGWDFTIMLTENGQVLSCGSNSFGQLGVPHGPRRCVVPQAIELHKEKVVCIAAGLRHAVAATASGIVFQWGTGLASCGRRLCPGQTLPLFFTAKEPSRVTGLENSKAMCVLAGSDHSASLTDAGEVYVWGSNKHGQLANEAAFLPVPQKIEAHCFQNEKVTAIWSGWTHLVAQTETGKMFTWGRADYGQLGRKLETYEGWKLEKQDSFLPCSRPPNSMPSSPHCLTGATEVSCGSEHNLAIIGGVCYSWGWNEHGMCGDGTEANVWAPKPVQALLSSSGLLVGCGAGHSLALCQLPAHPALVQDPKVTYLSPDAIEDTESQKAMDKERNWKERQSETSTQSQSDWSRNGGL
# How it was run: as §1
smiles,measurement,setting,value
Nc1ncnc2c1ncn2[C@@H]1O[C@H](COP(=O)(O)OP(=O)(O)NP(=O)(O)O)[C@@H](O)[C@H]1O [adenylyl imidodiphosphate],NP40-soluble protein abundance,[1]; concentration: 8mM,1.01 ± 0.02
same,NP40-soluble protein abundance,[1]; concentration: 10mM,1.01 ± 0.046
same,NP40-soluble protein abundance,[2]; concentration: 1mM,0.972 ± 0.02
same,NP40-soluble protein abundance,[2]; concentration: 2mM,0.92 ± 0.051
same,NP40-soluble protein abundance,[2]; concentration: 4mM,0.978 ± 0.032
same,NP40-soluble protein abundance,[2]; concentration: 6mM,1.01 ± 0.039
same,NP40-soluble protein abundance,[2]; concentration: 8mM,1.03 ± 0.025
same,NP40-soluble protein abundance,[2]; concentration: 10mM,1.01 ± 0.025
same,NP40-soluble protein abundance,[3]; concentration: 1mM,1.05 ± 0.017
same,NP40-soluble protein abundance,[3]; concentration: 2mM,1.04 ± 0.027
same,NP40-soluble protein abundance,[3]; concentration: 4mM,1.02 ± 0.041
same,NP40-soluble protein abundance,[3]; concentration: 6mM,1.01 ± 0.034
same,NP40-soluble protein abundance,[3]; concentration: 8mM,1.01 ± 0.025
same,NP40-soluble protein abundance,[3]; concentration: 10mM,1.01 ± 0.019
same,NP40-soluble protein abundance,[4]; concentration: 1mM,0.994 ± 0.073
same,NP40-soluble protein abundance,[4]; concentration: 2mM,1.03 ± 0.056
same,NP40-soluble protein abundance,[4]; concentration: 4mM,0.996 ± 0.072
same,NP40-soluble protein abundance,[4]; concentration: 6mM,1.06 ± 0.051
same,NP40-soluble protein abundance,[4]; concentration: 8mM,1.07 ± 0.043
same,NP40-soluble protein abundance,[4]; concentration: 10mM,1.05 ± 0.021
same,NP40-soluble protein abundance,[5]; concentration: 1mM,0.982 ± 0.022
same,NP40-soluble protein abundance,[5]; concentration: 2mM,1.01 ± 0.04
same,NP40-soluble protein abundance,[5]; concentration: 4mM,0.919 ± 0.04
same,NP40-soluble protein abundance,[5]; concentration: 6mM,0.921 ± 0.027
same,NP40-soluble protein abundance,[5]; concentration: 8mM,0.901 ± 0.04
same,NP40-soluble protein abundance,[5]; concentration: 10mM,0.903 ± 0.026
same,NP40-soluble protein abundance,[6]; concentration: 1mM,0.974 ± 0.05
same,NP40-soluble protein abundance,[6]; concentration: 2mM,0.96 ± 0.028
same,NP40-soluble protein abundance,[6]; concentration: 4mM,0.973 ± 0.048

# Quoted from the results shown (2 entries):
smiles,measurement,setting,value
Nc1ncnc2c1ncn2[C@@H]1O[C@H](COP(=O)(O)OP(=O)(O)NP(=O)(O)O)[C@@H](O)[C@H]1O [adenylyl imidodiphosphate],NP40-soluble protein abundance,[4]; concentration: 4mM,0.996 ± 0.072
same,NP40-soluble protein abundance,[4]; concentration: 6mM,1.06 ± 0.051
